Measured values taken from the supplement of paper PMC6078165.
Values are relative to the signal before dosing, not to a vehicle control; the signal also falls without drug.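 Fibroblast labels name human fibroblasts: mostly primary ones from tissues such as uterus (C12385, HUF), lung (H6013), bone (Hs27A), adrenal (HADF) and skin (WS1), plus mammary HMF and breast cancer-associated Hs343T. The cancer cells are basal-like or mesenchymal-like triple-negative breast cancer lines. The paper calls a changed response a hit when it shifts by more than 3x the replicate standard deviation. The tissue of the other fibroblasts is not given here.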

Tested on: BT20
Test: relative JC-1 red fluorescence (viability) vs pre-drug, coculture with fibroblast (fraction); higher = more viable cancer cells
Conditions: 100 µM
Description: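 JC-1 labelled TNBC cells cocultured 1:1 (1,500 cells each) with CellTrace Violet stained primary or stromal fibroblasts in 384-well plates in FluoroBrite medium, treated with one of 42 anticancer drugs at 0.1, 1, 10 or 100 uM. JC-1 red fluorescence (mitochondrial integrity in cancer cells only) was read by plate reader every 8 h for 72 h. Values are normalised to each well's pre-drug value. The stock of one drug was tenfold lower, so its dose labels may be too high.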

CS(=O)(=O)CCNCc1ccc(-c2ccc3ncnc(Nc4ccc(OCc5cccc(F)c5)c(Cl)c4)c3c2)o1 [Lapatinib]
relative JC-1 red fluorescence
Conditions	8 h	16 h	24 h	32 h	40 h	48 h	56 h	64 h	72 h
coculture fibroblast: C12385	0.876	0.81338	0.7931	0.7363	0.69	0.6598	0.6318	0.612	0.589
coculture fibroblast: H6013	0.892	0.862	0.9674	0.96074	0.922	0.918	0.915	0.876	0.848
coculture fibroblast: H6019	0.8777	0.809	0.777	0.708	0.668	0.64515	0.61781	0.5966	0.58323
coculture fibroblast: H6076	0.9921	0.912	0.8531	0.8415	0.8074	0.7919	0.792	0.786	0.778
coculture fibroblast: H6231	0.725	0.941	0.844	0.786	0.725	0.679	0.649	0.616	0.583
coculture fibroblast: HADF	0.842	0.864	0.779	0.858	0.818	0.746	0.817	0.747	0.694
coculture fibroblast: HCFa	0.942	0.956	0.964	0.926	0.906	0.8958	0.883	0.87	0.829
coculture fibroblast: HCPF	0.751	0.926	0.889	0.864	0.835	0.759	0.807	0.736	0.711
coculture fibroblast: HHSteC	0.9192	0.865	0.833	0.769	0.7275	0.702	0.6839	0.65	0.631
coculture fibroblast: HMF	0.881	0.933	0.8485	0.796	0.7635	0.7151	0.6833	0.6473	0.612
coculture fibroblast: HPFa	0.972	0.913	0.92	0.853	0.842	0.803	0.783	0.753	0.711
coculture fibroblast: HUF	0.9107	0.818	0.777	0.7	0.655	0.617	0.605	0.591	0.579
coculture fibroblast: Hs5	0.825	0.905	0.825	0.763	0.725	0.692	0.652	0.631	0.602
coculture fibroblast: Hs27A	0.719	0.801	0.78	0.873	0.727	0.873	0.858	0.813	0.779
coculture fibroblast: Hs343T	0.802	0.909	0.834	0.765	0.7133	0.6654	0.621	0.588	0.5465
coculture fibroblast: WS1	0.8521	0.788	0.757	0.705	0.649	0.622	0.59	0.569	0.548
